This passage reports binding results from patent US20040191240A1, “Composition and method for nerve regeneration” (priority 2003, published 2004).

These are yes or no findings as the source states them, for the method shown. Some entries that bind do so weakly or less than the wild type. Sequences can lack the tags named with a protein.

This assay deals with T1, GST-CAT (GST fused to a fragment of Rho-kinase, aa 6-553) (Homo sapiens (Human)) (UniProt O75116).
T1 sequence: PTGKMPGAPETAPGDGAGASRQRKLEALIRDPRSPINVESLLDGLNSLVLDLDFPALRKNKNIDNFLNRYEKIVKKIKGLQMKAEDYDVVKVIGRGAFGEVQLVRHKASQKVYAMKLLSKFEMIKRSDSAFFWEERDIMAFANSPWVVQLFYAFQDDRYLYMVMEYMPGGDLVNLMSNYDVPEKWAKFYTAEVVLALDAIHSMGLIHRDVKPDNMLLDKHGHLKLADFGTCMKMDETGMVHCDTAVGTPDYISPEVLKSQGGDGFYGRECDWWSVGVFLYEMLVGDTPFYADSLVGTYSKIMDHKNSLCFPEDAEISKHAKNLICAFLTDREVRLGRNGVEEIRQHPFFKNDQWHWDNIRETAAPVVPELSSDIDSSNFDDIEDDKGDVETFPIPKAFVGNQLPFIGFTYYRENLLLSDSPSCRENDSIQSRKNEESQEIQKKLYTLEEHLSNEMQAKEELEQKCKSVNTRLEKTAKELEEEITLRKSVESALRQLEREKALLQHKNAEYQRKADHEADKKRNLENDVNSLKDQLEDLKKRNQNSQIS
As to the kind of experiment: competition: substrate peptide at several concentrations against p21 for GST-CAT.

In the case of AKRRRLSSLRA [S6 kinase substrate peptide (…)], the binding result is “binds”.
